From paper PMC9465852 come the findings set out here.

Protein sequences, listed by entry. Tags and fused reporters are not part of them. Lines headed by an entry give the natural chain unless they say otherwise; changes in a name come on top.
UniProt Q91572: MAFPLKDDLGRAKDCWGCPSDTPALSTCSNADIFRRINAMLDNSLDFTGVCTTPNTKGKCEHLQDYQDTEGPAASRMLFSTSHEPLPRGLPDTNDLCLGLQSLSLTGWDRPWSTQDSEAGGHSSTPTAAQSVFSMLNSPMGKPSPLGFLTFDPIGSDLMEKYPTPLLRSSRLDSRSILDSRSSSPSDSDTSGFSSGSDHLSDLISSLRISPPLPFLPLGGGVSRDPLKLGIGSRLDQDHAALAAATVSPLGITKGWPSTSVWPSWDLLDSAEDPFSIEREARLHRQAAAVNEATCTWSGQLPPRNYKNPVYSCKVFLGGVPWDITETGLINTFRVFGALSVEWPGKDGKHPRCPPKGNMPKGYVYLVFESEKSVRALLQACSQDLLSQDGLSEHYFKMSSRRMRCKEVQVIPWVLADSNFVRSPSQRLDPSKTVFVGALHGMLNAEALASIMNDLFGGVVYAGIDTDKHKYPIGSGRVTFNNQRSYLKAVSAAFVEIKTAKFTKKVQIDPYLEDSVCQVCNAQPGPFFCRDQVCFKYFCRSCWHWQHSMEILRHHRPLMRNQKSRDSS

Construct, isoform or probe ends are uncertain for at least one entry. At least one verdict rests on a figure or table, not on a statement of the authors.

In the data set the target is CPEB1 (Xenopus laevis) (UniProt Q91572). As to the kind of experiment: AlphaScreen. The conditions noted are these: 50 nM protein, 0.5-75 nM RNA; 3' biotin; 10 mM HEPES pH 7.4, 100 mM KCl, 3 mM MgCl2, 1 mM DTT, 0.2 mg/mL tRNA, 0.1% Tween; room temperature; 50 or 75 nM …; recombinant protein; protein details: 6xHis; label: 3' biotin. (In general: In Alpha technology, singlet oxygen from a donor bead excites a nearby acceptor bead.)

On to AGUGUACAGUGUUUUUAAUAGUUUGUUG [CPE-A], for which the binding result is given as “binds”.
